Assay results: patent publication US9157908B2, “Chitosan-alginate scaffold cell culture system and related methods” (University of Washington through its Center for …, priority 2011, dated 2015)
The name of at least one read-out is uncertain.

Key:
PLC/PRF/5 (PLC) cells = format: cell-based, human
Protocol: (§1) Proliferation of cells cultured on 2D wells, Matrigel matrix, and CA scaffolds was determined using the Alamar Blue assay following the manufacturer's protocol. Briefly, cells cultured on 2D wells and 3D scaffolds were washed with D-PBS before adding 1 mL of Alamar Blue solution (10% Alamar Blue in fully supplemented phenol red free DMEM or MEM) to each well.
(§2) For human hepatocellular carcinoma cells, after 2 hrs the Alamar Blue solution was transferred to a 96-well plate to obtain fluorescent values on a SpectraMax M2 microplate reader (Molecular Devices, Sunnyvale, Calif.) at 550 nm excitation, 590 nm emission. Standard curves were generated by seeding cells counted using a hemocytometer onto cell culture materials in triplicate, and performing Alamar Blue assay to generate a plot of linear regression of fluorescent values vs. cell number for each material. The cell number in an experimental sample was calculated based on the standard curve. No background fluorescence was generated by CA scaffolds. […]
(§3) For human hepatocellular carcinoma cell-containing scaffolds, after 10 days of culture, media from cell cultures were replaced with 1 mL fully supplemented cell culture media containing various concentrations of doxorubicin. […] Cell viability was assessed using the Alamar Blue assay following the manufacturer's protocol as described above. […]

HepG2 cells = experiment: Cellular response to doxorubicin, cell viability by Alamar Blue assay; format: cell-based, human; conditions: HepG2 tumor models formed in CA scaffolds
Protocol: as §1, §2, §3

With `COc1cccc2c1C(=O)c1c(O)c3c(c(O)c1C2=O)C[C@@](O)(C(=O)CO)C[C@@H]3O[C@H]1C[C@H](N)[C@H](O)[C@H](C)O1` [doxorubicin] the “increase of LD50 in 3D culture compared to 2D culture” value (PLC/PRF/5 (PLC) cells) was “nearly twenty times” and the “LD50 in CA scaffolds relative to 2D cultured cells” value (HepG2 cells) was “nearly thirty times”.
